Patent publication US20240360245A1 (Daiichi Sankyo, published 2024)
Results are given in words; binding and its absence hold for the method and conditions named. Some binding calls cover weakened binding; strength is not graded here.

Chains of the proteins cited; added tags and fusions are not shown. Lines headed by an entry give the natural chain unless they say otherwise; changes in a name come on top.
UniProt P01137: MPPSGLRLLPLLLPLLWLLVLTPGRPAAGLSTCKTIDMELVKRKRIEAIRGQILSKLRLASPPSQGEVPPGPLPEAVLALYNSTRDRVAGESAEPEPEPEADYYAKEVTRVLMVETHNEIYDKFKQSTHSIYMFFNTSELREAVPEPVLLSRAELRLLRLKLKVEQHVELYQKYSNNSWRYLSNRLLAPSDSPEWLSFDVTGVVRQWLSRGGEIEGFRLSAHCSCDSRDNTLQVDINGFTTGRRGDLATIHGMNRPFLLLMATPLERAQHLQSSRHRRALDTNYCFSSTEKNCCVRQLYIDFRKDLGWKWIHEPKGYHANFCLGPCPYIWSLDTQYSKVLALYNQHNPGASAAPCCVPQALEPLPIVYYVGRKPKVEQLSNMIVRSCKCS

Key:
[1] = target: human GARP co-expressed with human TGF β1 on HEK-293T cells (human) (UniProt P01137); assay: flow cytometry, HEK-293T cells co-transfected with TGF β1 and GARP
[2] = target: human GARP co-expressed with human TGF β1 on HEK-293T cells (human) (UniProt P01137); assay: flow cytometry on HEK-293T cells co-transfected with human TGF beta1 and human GARP, PE-labeled anti-IgG secondary antibody

| binding [1] | binding [2] | Binder |
| --- | --- | --- |
| binds | binds | humanized anti-human GARP antibody h198D-H3L4 (antibody, human IgG1, kappa, V domains shown, Produced in Potelligent CHOK1SV cells; also called MACA-1983a) VH: EVQLVESGGGLVKPSQTLSLTCTVSGFSLTSFHVSWVRQPPGKGLEWIATISSGGGTYYNPSLKSRVTISRDTSKNQVSLKLSSVTAADTAVYYCARISGWGHYYVMDVWGQGTLVTVSS VL: DIQMTQSPSSLSASVGDRVTITCQASEDIYSGLAWYQQKPGKSPKLLIYGAGSLQDGVPSRFSGSGSGTHYTLTISSLQPEDFATYFCQQGLKFPLTFGQGTKVEIKR |
| binds | binds | humanized anti-human GARP antibody h151D-H1L1 (antibody, human IgG1, kappa, V domains shown, Produced in Potelligent CHOK1SV cells; also called MACA-1511a) VH: EVQLVESGGGLVQPGGSLRLSCAASGFTFSNYYMAWVRQAPGKGLEWVSSIGTVGGNTYYADSVKGRFTISRDDSKNTLYLQMNSLRAEDTAVYYCAREDYGGFPHWGQGTLVTVSS VL: NIVMTQSPDSLAVSLGERATINCKASQNVGTNVDWYQQKPGQSPKLLIYGASNRYTGVPDRFSGSGSGTDFTLTISSLQAEDVAVYDCLQYKYNPYTFGQGTKVEIKR |
| binds | binds | humanized anti-human GARP antibody h151D-H4L4 (antibody, human IgG1, kappa, V domains shown, Produced in Potelligent CHOK1SV cells; also called MACA-1514a) VH: EVQLVESGGGLVQPGGSLRLSCAASGFTFSNYYMAWVRQAPGKGLEWVASIGTVGGNTYYRDSVKGRFTISRDDSKSTLYLQMNSLRAEDTAVYYCAREDYGGFPHWGQGTLVTVSS VL: NIVMTQSPSSLSASVGDRVTINCKASQNVGTNVDWYQQKPGKSPKLLIYGASNRYTGVPDRFSGSGSGTDFTLTISSLQPEDFATYDCLQYKYNPYTFGQGTKVEIKR |
| binds | binds | 105F antibody (antibody, human IgG1, lambda, V domains shown) VH: EVQLLESGGGLVQPGGSLRLSCAASGFTFSDYYMSWIRQAPGKGLEWVSGVSWNGSRTHYADSVKGRFTISRDNSKNTLYLQMNSLRAEDTAVYYCARQRQLAEFDYWGQGTLVTVSS VL: QSVLTQPPSASGTPGQRVTISCTGSSSNIGAGYVVHWYQQLPGTAPKLLIYADTNRPSGVPDRFSGSKSGTSASLAISGLRSEDEADYYCQSYDSSLRGWVFGGGTKLTVLG |
